From paper PMC8888484, “Ubr1-induced selective endophagy/autophagy protects against the endosomal and Ca^2+-induced proteostasis disease stress” (Cellular and Molecular Life Sciences: CMLS, 2022)
Residue numbers refer to the chain shown, from its start. No constants are given. Whether binding was seen depends on the method and setting. In cells and extracts the contact can be indirect. Binding can be weak; no strength is given.

Legend:
[1] = target: T1, 2HA-MLC1-S280L (human (by the printed GeneID 23209; the paper does not say the species in words)) (UniProt Q15049); test: proximity ligation; Duolink PLA between HA (MLC1, anti-HA internalised 30 min in live cells or bound to the surface of fixed cells) or EEA1 and Flag (Ubr1) epitopes in fixed cells
T1 sequence: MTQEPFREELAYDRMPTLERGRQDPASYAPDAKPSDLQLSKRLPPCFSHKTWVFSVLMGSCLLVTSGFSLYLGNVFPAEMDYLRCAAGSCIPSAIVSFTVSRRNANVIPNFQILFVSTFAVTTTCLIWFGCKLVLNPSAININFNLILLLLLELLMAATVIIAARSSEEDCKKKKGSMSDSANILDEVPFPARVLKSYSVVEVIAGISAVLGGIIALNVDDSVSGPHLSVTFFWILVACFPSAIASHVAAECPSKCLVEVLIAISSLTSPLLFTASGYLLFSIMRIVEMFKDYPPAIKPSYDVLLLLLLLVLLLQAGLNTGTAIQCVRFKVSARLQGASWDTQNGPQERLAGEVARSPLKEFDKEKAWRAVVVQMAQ

[2] = target: T1, 2HA-MLC1-S280L (human (by the printed GeneID 23209; the paper does not say the species in words)); test: cross-linking + co-IP; mild in vivo cross-linking with dithiobis(succinimidyl propionate) 0.05 mM, 10 min, room temperature, then cs-IP of S280L/GlialCAM with anti-GlialCAM Ab without denaturation
[3] = target: T2, 2HA-MLC1-P92S (human (by the printed GeneID 23209; the paper does not say the species in words)) (UniProt Q15049); test: co-IP; cell surface immunoprecipitation (cs-IP): anti-GlialCAM Ab bound to live HeLa cells 45 min on ice, unbound Ab washed off, lysis (0.4% NP-40 in co-IP assays), MLC1/GlialCAM complex precipitated, Western blot; signals normalised to precipitated MLC1; for Fig. 7G cells with siUbr1 or siNT and Flag-Ubr1-wt or -CI
T2 sequence: T1 sequence with P92S, L280S

[4] = target: T3, 2HA-MLC1-C326R (human (by the printed GeneID 23209; the paper does not say the species in words)) (UniProt Q15049); test: as above
T3 sequence: T1 sequence with L280S, C326R

binding [1]	binding [2]	binding [3]	binding [4]	Substance
binds	binds weakly			Flag-Ubr1-CI (catalytically inactive Ubr1, C1011 mutated to alanine)
binds	binds weakly			Flag-Ubr1-wt (ubiquitin-protein ligase E3 component N-recognin 1)
		binds	binds	Hsp90 (isoform not told in this experiment) (human (endogenous in HeLa))
